A short description of this data set: general procedure: solution-phase peptide synthesis; HATU / DIPEA.
The mark [1] stands for this setting: coupling step, HPLC (DAD) and LCMS traces.
Setting [2] is: late stage modification step, HPLC (DAD) and LCMS traces.

HELM strings list residues between dots; [ac] is acetyl, [am] amide, other brackets name non-standard units.

Substance “PEPTIDE1{[XBoc].F.[Xg4A].[XACBC].[Xg4F].[XACBC].L.[XOMe]}$$$$V2.0” came in with a step yield (coupling step) of 78%. The “final HPLC purity” value under setting [1] is reported as “higher than 95%”.
The like results for “PEPTIDE1{[XBoc].F.[Xg4A].[XACBC].[Xg4F].[XACBC].[Xg4L].[XOMe]}$$$$V2.0” were, in that order, 84% and “higher than 95%”.
The corresponding values for “PEPTIDE1{[XBoc].F.[Xg4A].[XACBC].[Xg4W].[XACBC].L.[XOMe]}$$$$V2.0” are 68% and “higher than 96%”.
For the setting “coupling step”, “PEPTIDE1{[XBoc].F.[Xg4A].[XACBC].[Xg4W].[XACBC].[Xg4L].[XOMe]}$$$$V2.0” returned a step yield of 59%. For the same substance, under setting [1], the “final HPLC purity” value is “higher than 98%”.
In turn, “PEPTIDE1{[ac].F.[Xg4A].[XACBC].[Xg4F].[XACBC].L.[XOMe]}$$$$V2.0” had a step yield (late stage modification step) of 48%. For the same substance, under setting [2], the “final HPLC purity” value was “higher than 95%”.
As for “PEPTIDE1{[ac].F.[Xg4A].[XACBC].[Xg4F].[XACBC].[Xg4L].[XOMe]}$$$$V2.0”, the step yield (late stage modification step) came out at 37%. For the same substance, the “final LC-MS purity” value under setting [2] was “higher than 95%”.
In turn, “PEPTIDE1{[ac].F.[Xg4A].[XACBC].[Xg4W].[XACBC].L.[XOMe]}$$$$V2.0” returned a step yield (late stage modification step) of 42%. The “final HPLC purity” value under setting [2] is given as “higher than 95%”.
In turn, “PEPTIDE1{[ac].F.[Xg4A].[XACBC].[Xg4W].[XACBC].[Xg4L].[XOMe]}$$$$V2.0” came in with a step yield (late stage modification step) of 32%. The “final HPLC purity” value under setting [2] is recorded as “higher than 95%”.

Values taken from paper PMC5014220 (Angewandte Chemie (International Ed. in English), 2016).
